{"sequences": {"note": "By UniProt entry, the sequences of proteins in these tests, tags left out.", "UniProt Q9JLV1": "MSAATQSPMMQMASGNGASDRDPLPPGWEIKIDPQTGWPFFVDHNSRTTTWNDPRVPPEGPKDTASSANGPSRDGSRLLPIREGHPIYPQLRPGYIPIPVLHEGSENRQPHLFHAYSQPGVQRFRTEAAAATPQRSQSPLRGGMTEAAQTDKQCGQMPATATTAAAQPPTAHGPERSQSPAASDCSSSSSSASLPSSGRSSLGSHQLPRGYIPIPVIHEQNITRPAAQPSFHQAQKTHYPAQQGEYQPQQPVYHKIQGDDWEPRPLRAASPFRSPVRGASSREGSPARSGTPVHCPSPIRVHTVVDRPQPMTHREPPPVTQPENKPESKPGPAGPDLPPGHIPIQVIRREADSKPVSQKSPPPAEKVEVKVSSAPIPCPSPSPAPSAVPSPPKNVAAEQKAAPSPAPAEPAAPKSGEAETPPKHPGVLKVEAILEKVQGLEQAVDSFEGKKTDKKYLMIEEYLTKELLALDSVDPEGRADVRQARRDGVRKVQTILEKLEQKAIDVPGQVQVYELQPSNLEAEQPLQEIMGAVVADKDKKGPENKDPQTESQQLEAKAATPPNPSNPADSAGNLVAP", "UniProt Q7TQK1": "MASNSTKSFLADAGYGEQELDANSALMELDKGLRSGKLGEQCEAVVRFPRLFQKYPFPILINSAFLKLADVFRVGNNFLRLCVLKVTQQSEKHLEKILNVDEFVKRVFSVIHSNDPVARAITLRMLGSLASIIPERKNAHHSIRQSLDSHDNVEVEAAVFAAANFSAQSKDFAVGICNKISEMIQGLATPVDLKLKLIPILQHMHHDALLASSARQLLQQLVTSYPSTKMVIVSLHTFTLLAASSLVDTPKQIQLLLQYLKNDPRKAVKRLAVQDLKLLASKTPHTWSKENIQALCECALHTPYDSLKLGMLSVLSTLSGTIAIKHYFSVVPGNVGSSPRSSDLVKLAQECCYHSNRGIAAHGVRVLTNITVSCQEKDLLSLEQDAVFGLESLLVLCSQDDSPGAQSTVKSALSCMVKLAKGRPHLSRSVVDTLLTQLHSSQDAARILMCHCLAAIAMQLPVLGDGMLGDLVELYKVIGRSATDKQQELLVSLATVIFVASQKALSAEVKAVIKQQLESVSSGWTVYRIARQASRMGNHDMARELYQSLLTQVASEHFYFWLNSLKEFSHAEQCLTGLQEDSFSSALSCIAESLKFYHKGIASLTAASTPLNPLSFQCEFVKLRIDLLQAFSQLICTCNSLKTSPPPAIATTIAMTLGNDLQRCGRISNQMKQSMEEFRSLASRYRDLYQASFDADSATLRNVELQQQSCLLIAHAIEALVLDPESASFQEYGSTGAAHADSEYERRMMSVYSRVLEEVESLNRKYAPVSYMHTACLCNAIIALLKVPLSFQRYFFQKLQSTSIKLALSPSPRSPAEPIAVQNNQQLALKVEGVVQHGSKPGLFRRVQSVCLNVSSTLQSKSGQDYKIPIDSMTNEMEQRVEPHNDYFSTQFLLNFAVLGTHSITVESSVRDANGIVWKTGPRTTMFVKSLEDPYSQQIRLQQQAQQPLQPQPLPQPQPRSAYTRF"}, "source": "paper PMC10422954", "molecular_target": "Bcl-2-associated athanogene 3 (BAG3) (mouse (endogenous in C57BL/6 BMMSCs)) (UniProt Q9JLV1)", "assay": "co-IP; BMMSC lysates (RIPA lysis buffer, precleared with protein A agarose) incubated with anti-BAG3 or anti-INTS7 antibody overnight at 4 °C, then protein A agarose 3 h at 4 °C; washed with PBS; western blotting", "note": "Results are given in words; binding and its absence hold for the method and conditions named. Binding seen in cells or lysates may run through a third protein. Some entries that bind do so weakly or less than the wild type."}
{"substance": "INTS7 (from UniProt Q7TQK1 1-966)", "values": [{"measurement": "binding", "value": "binds"}]}
